{"source": "patent US7008905B2", "about": "“Method of combating undesired plant growth on cereals” (BASF Aktiengesellschaft, priority 2000, dated 2006)", "key": {"[1]": {"tested_on": "grasses and broadleaf weeds", "test": "Post-emergence test, overall weed control", "type": "in vivo", "experimental": "These acetone solutions are diluted with water and the resulting formulations applied at dosage levels equivalent of about 0.030 to 0.240 kg per hectare of test compound per pot. After spraying the plants are placed an greenhouse benches and are cared for in the usual manner, commensurate with conventional greenhouse practices. From 2 to 4 weeks after treatment, the seedling plants are examined and rated according to the rating system provided above. A rating 0 indicates growth as untreated control, a rating 100 indicates death."}, "[2]": {"tested_on": "grasses and broadleaf weeds", "test": "Pre-emergence test, overall weed control", "type": "in vivo", "experimental": "The pre-emergence tests involve spraying a liquid formulation of the compound onto the soil in which the seeds of the plant species mentioned above has recently been sown.\nThe soil used in the tests is a prepared horticultural loam. The formulations used in the tests are prepared from solutions of the test compounds in acetone containing 0.4% by weight of an alkylphenol/ethylene oxide condensate available under the trade mark TRITON X-155.\nThese acetone solutions are diluted with water and the resulting formulations applied at dosage levels corresponding to 15 g, 30 g, 60 g, 120 g or 240 g of active material per hectare in a volume equivalent to 900 liters per hectare. In these tests untreated sown soil is used as control. The herbicidal effects of the test compounds are assessed visually three weeks after spraying the soil and are recorded an a 0 to 100 scale. A rating 0 indicates growth as untreated control, a rating 100 indicates death. An increase of 10 unit an the linear scale approximates to a 10% increase in the level of effect. The results of the assessment are set out in Tables 1 to 4."}}, "note": "For at least one compound, name, drawing or mass did not settle the structure.", "data": [{"smiles": "FC(F)(F)c1ccc(-c2nccc(Oc3cccc(C(F)(F)F)c3)n2)cc1", "note": "[TTP, 4-(3-trifluoromethylphenoxy)-2-(4-trifluoromethyl-phenyl)-pyrimidine]", "values": [{"measurement": "weed control at wheat selective doses", "setting": "[1]", "result": "complete postemergence control of all the grasses and broadleaf weeds"}, {"measurement": "weed control at wheat selective doses", "setting": "[2]", "result": "complete pre-emergencecontrol of all the grasses and broadleaf weeds"}]}]}
